Experimental data reported in publication PMC12670160, “A drug-repurposing screen of FDA- and EMA-approved drugs identifies two NF-κB inhibitors active against eumycetoma” (Journal of Antimicrobial Chemotherapy, 2025).
Where a name gives a salt, the structure may show the parent alone. In all, about 5,300 compounds went through this assay and about 130 (2.5%) showed an effect of 50% or more. Some of the results follow.

These compounds were tested on M. mycetomatis strain mm55. Settings: primary screen, metabolic activity vs growth control; 96 h, 2 µM; inhibitor.

Point of comparison: `NC1=NCC2c3ccccc3Cc3ccccc3N12` (stereo not shown) [ONC0004471, epinastine hcl], “% viability” value 120.4%. Against it:
- O=C(CN1C2=NCCN2c2ccccc21)c1ccc(-c2ccccc2)cc1 [ONC0002544, cct031374] — lower, 68.21%
- CN(C)[C@@H]1CCc2[nH]c3ccc(NC(=O)c4ccc(F)cc4)cc3c2C1 [ONC0002678, ly344864] — lower, 85.04%
- CNC(=O)c1ccccc1Sc1ccc2c(/C=C/c3ccccn3)n[nH]c2c1 [ONC0000408, axitinib] — lower, 61.39%
- Cc1ccc(NC(=O)Nc2cc(C(F)(F)F)ccc2F)cc1Nc1ccc2c(c1)NC(=O)/C2=C\c1ccc[nH]1 [ONC0000024, gnf5837] — lower, 83.28%
- CC(C)(NS(=O)(=O)c1ccc(Oc2ccc(F)cc2)cc1)C(=O)NO [ONC0001662, cp471474] — lower, 77.34%
- CC(CN1c2ccccc2Sc2ccccc21)N(C)C (stereo not shown) [ONC0000501, promethazine hydrochloride] — lower, 70.91%
- CC[C@@H](CO)NC(=O)[C@@H]1C=C2c3cccc4c3c(cn4C)C[C@H]2N(C)C1 [ONC0003158, methysergide] — lower, 77.63%
- CNC(=O)c1ccc(N2C(=S)N(c3cnc(C#N)c(C(F)(F)F)c3)C(=O)C23CCC3)cc1F [ONC0005202, arn509] — lower, 113%
- CC(C)[C@H](CO)Nc1nc(Nc2cc(N)cc(Cl)c2)c2ncn(C(C)C)c2n1 [ONC0000765, aminopurvalanola] — lower, 80.13%
- O=C(c1ccc(OCCN2CCCCC2)cc1)c1c(-c2ccc(O)cc2)sc2cc(O)ccc12 [ONC0004031, raloxifene hydrochloride] — lower, 81.38%
- O=C1c2ccccc2-c2n[nH]c3cccc1c23 [ONC0001670, pyrazolanthrone] — lower, 81.21%
- Cc1cc(CCC[C@H](CC(=O)NO)C(=O)N[C@H](C(=O)N[C@H](C)c2ccccc2)C(C)(C)C)ccc1-c1ccccc1 [ONC0002525, uk356618] — lower, 62.33%
- CCc1c(-c2ccccc2)c(-c2ccccc2)nn1-c1ccccc1-c1cccc(OCC(=O)O)c1 [ONC0001328, bms309403] — lower, 103.8%
- CO[C@H]1CC[C@H](N2C(=O)CNc3ncc(-c4ccc(C(C)(C)O)nc4)nc32)CC1 [ONC0001106, cc223] — lower, 54.41%
- Cc1ccc(Cl)cc1N(CC(=O)Nc1c(F)cccc1F)S(C)(=O)=O [ONC0004491, fph1 brd6125] — lower, 61.11%
- COc1cccc(/C=N/C=N/c2cccc(OC)c2)c1 [ONC0002505, dmeob] — lower, 75.27%
- COc1cc2c(cc1OC)-c1c/c(=N\c3c(C)cc(C)cc3C)n(C)c(=O)n1CC2 [ONC0003609, trequinsin] — lower, 63.58%
- Cn1nnc(-c2ccc(-c3ccc(N4C[C@H](CO)OC4=O)cc3F)cn2)n1 [ONC0000988, tedizolid] — lower, 70.21%
- CS(=O)(=O)OC[C@H](O)[C@@H](O)COS(C)(=O)=O [ONC0002110, treosulfan] — lower, 75.47%
- Cc1cccc(Nc2ccncc2S(=O)(=O)NC(=O)NC(C)C)c1 [ONC0004269, torsemide] — lower, 66.39%
- C[C@]12CC[C@H]3[C@@H](CCC4=CC(=O)CC[C@@]43C)[C@@H]1CC[C@@H]2C(=O)CO [ONC0002930, desoxycortone] — lower, 75.34%
- CCNC(=O)[C@@H]1CCCN1C(=O)[C@H](CCCNC(=N)N)NC(=O)[C@H](CC(C)C)NC(=O)[C@@H](CC(C)C)NC(=O)[C@H](Cc1ccc(O)cc1)NC(=O)[C@H](CO)NC(=O)[C@H](Cc1c[nH]c2ccccc12)NC(=O)[C@H](Cc1c[nH]cn1)NC(=O)[C@@H]1CCC(=O)N1 [ONC0002145, leuprolide acetate] — lower, 78.55%
- CCCCN1CCC(CNC(=O)c2c3n(c4ccccc24)CCCO3)CC1 [ONC0001237, piboserod] — lower, 100.5%
- CC1(S(=O)(=O)O)CC(=O)c2ccccc2C1=O (stereo not shown) [ONC0005528, menadionebisulfite] — lower, 107.2%
- C[C@H]1CC2C([C@@H](O)C[C@@]3(C)C2CC[C@]3(O)C(=O)COC(=O)CCC(=O)O)[C@@]2(C)C=CC(=O)C=C12 (stereo partly shown) [ONC0003156, methylprednisolone sodium succinate] — lower, 82.41%
- CC1(C)O[C@@H]2[C@@H](CO[C@@]3(COS(N)(=O)=O)OC(C)(C)O[C@@H]23)O1 [ONC0003896, topiramate] — lower, 80.41%
- COc1cc(NS(=O)(=O)c2ccc(N)cc2)nc(OC)n1 [ONC0000634, sulfadimethoxine] — lower, 96.85%
- CC[N+](CC)(CC(=O)Nc1c(C)cccc1C)Cc1ccccc1 [ONC0003966, denatonium benzoate] — lower, 84.43%
- O=C1N=C2SCCN2C(=O)C1Cc1ccc(Cl)cc1 (stereo not shown) [ONC0002976, nuclomedone] — lower, 78.17%
- CNC(=O)c1cccc2cc(Oc3ccnc4cc(OCC5(N)CC5)c(OC)cc34)ccc12 [ONC0002191, lucitanib] — lower, 93.84%
- CCOC(=O)[C@@H](N)Cc1ccc(O)c(O)c1 [ONC0003209, etilevodopa] — lower, 91.62%
- O=C1Nc2ccc(I)cc2/C1=C/c1cc(Br)c(O)c(Br)c1 [ONC0001580, gw5074] — lower, 85.3%
- NC(=O)c1ccc[n+]([C@@H]2O[C@H](COP(=O)(O)OP(=O)(O)OC[C@H]3O[C@@H](n4cnc5c(N)ncnc54)[C@H](O)[C@@H]3O)[C@@H](O)[C@H]2O)c1 [ONC0000400, nadide] — lower, 73.87%
- COc1c(Nc2ccc(S(C)(=O)=O)nc2C)ncnc1OC1CCN(C(=O)OC(C)C)CC1 [ONC0001156, apd597] — lower, 102.1%
- Cc1ccc(-c2ccc(C)cn2)nc1 [ONC0002143, abametapir] — lower, 65.91%
- Clc1cccc(Nc2nnc(-c3ccccc3)c3ccccc23)c1 [ONC0000204, my5445] — lower, 64.62%
- NC/C(=C/F)CCc1ccc(F)cc1 [ONC0001167, mofegiline hydrochloride] — lower, 95.04%
- CC(C)Cn1cnc2c(N)nc3ccccc3c21 [ONC0004169, imiquimod hydrochloride] — higher, 125.1%
- Oc1nc(-c2ccc(C(F)(F)F)cc2)nc2c1CSCC2 [ONC0001471, xav939] — lower, 63.65%
- OCc1cncc(F)c1 [ONC0002627, 5fluoro3pyridylmethanol] — lower, 74.24%
- CSCCC(N)C(=O)O (stereo not shown) [ONC0005439, methionine] — higher, 151%
- Cc1nc2ccc(NC(=O)Nc3ccnc4cccnc34)cc2o1 [ONC0001721, sb334867] — lower, 85.15%
- CON(C)C(=O)N1N=C(c2cc(F)ccc2F)S[C@@]1(CCCN)c1ccccc1 [ONC0000968, filanesib] — lower, 67.32%
- NC(=O)N1c2ccccc2CC(=O)c2ccccc21 [ONC0003954, oxcarbazepine] — lower, 77.43%
- Oc1ccc(C2(c3ccccc3F)CCC(F)(F)CC2)cc1 [ONC0000174, ac186] — lower, 93.25%
- O=C(O)CCC(=O)O [ONC0003714, succinic acid] — lower, 98.68%
- CN[C@H](CNC(=O)N1CCC[C@@H]([C@@H](OCCNC(=O)OC)c2cccc(Cl)c2)C1)C[C@H]1CCCOC1 [ONC0002041, vtp27999 hydrochloride] — lower, 62.33%
- Cc1ccc(C23CNCC2C3)cc1 (stereo not shown) [ONC0001899, bicifadine] — lower, 84.51%
- O=c1[nH]c(=O)n([C@H]2C[C@H](O)[C@@H](CO)O2)cc1C(F)(F)F [ONC0003908, trifluridine] — lower, 61.31%
- Cc1cc(C#N)cc(C)c1Oc1nc(Nc2ccc(C#N)cc2)nc(N)c1Br [ONC0005114, etravirine tmc125] — lower, 112.9%
- Cn1cncc1[C@@](N)(c1ccc(Cl)cc1)c1ccc2c(c1)c(-c1cccc(Cl)c1)cc(=O)n2C [ONC0004838, tipifarnib zarnestra] — lower, 92.61%
- CC(C)[C@@H](N)C(=O)O [ONC0001949, dvaline] — lower, 68.66%
- CCCC(=O)O[C@]1(C(=O)CO)CC[C@H]2[C@@H]3CCC4=CC(=O)CC[C@]4(C)[C@H]3[C@@H](O)C[C@@]21C [ONC0002884, hydrocortisone butyrate] — lower, 87.92%
- CC1(C)S[C@@H]2[C@H](NC(=O)COc3ccccc3)C(=O)N2[C@H]1C(=O)O [ONC0000449, penicillin v potassium] — lower, 88.8%
- O=C(CN1C(=O)C2(CCCC2)NC[C@H]1c1cc(F)cc(F)c1)Nc1ccc2c(c1)C[C@@]1(C2)C(=O)Nc2ncccc21 [ONC0000767, mk3207 hydrochloride] — lower, 76.45%
- Cc1cc(F)c(Nc2ncnc3cc(OCc4ccccc4)ccc23)cc1O [ONC0001361, zm323881] — lower, 106.8%
- COc1ccc2c3c1O[C@H]1C[C@@H](O)C=C[C@@]31CCN(C)C2 [ONC0000593, galantamine] — higher, 145.4%
- COc1cc(C(=O)NC2CCN(C)CC2)c(F)cc1Nc1ncc2c(n1)N(C1CCCC1)CC(F)(F)C(=O)N2C [ONC0000216, tak960] — lower, 78.5%
- O=C(NNc1ccccc1)c1ccncc1 [ONC0004620, plurisin 1 nsc 14613] — lower, 71.9%
- CCCCC/C=C\C=C/CCCCCCCCC(=O)O [ONC0003827, trans10cis12conjugatedlinoleicacid] — lower, 57.74%
